In publication PMC9042941 one finds binding data, which are given here for one molecule.

This test deals with MSMEG_3494_(33-153) (M. smegmatis) (UniProt A0QY10). The test is described as follows: SEC; Superdex 75 gel filtration after Ni affinity purification and removal of the tag by enterokinase; single peak, estimated 15 kDa; both purified.

No constants are given. Whether binding was seen depends on the method and setting.

B1: MSMEG_3494_(33-153) (domain or fragment, UniProt A0QY10 33-153)
chain: DATDDYPIPNRIMRTPCTAEQIMAAARDVEPVYYERYMTDYKNKPPHVQQAARDRIHWFFSMDYAGRRQYSENTATDAFFEQLAWMWPNWAKLFFNNKGVAANTTDVCEQYPPDDMSVWNW
With B1, the binding result is on record as “no binding”.
